# Reference: PubChem BioAssay AID328 (DTP/NCI, 2004)
# The list shows only some results of the screen, not a fair sample: it gathers tests that were run many times, whatever their T/C, doses with no T/C, and many T/C values between a quarter and a half above the control. Further doses and runs are listed elsewhere. T/C: endpoint of the treated group in % of that of the vehicle group. Some entries give survivors of the animals treated and no T/C: the source holds a T/C of zero for them, seemingly a mark for toxic or unscored doses. Some doses without a T/C left all or most animals alive at the check, yet need not have been tolerated: survival well below the control is almost never listed, so the zero probably covers shortened survival too. Survivors were counted at the toxicity check, usually on the fifth day, unless a day is given; later deaths do not show. Schedules are NCI's codes, taken here to give the interval after Q, in days (D) or hours (H), and the number of doses after X. Counts like (3×) say how often a value occurs here. Some entries were tested several times; the results are listed from low to high. For survival time, the PubChem record calls one and a half times the control and up active, and a quarter to a half above the control has no call in these data; cut-offs in other NCI protocols can differ. Some T/C values are followed by the survivors on the day toxicity was checked, most often the fifth; where none is given, no animal had died by that day. Some schedules carry Z or #; the key to these is not given.
# System: BDF1 mice, P388 leukemia ip, median survival T/C
# Assay: NCI In Vivo Anticancer Drug Screen. Data for tumor model P388 Leukemia (intraperitoneal) in B6D2F1 (BDF1) mice
# Conditions: T/C endpoint: median survival time, higher T/C = longer survival
# How it was run: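 Antitumour effect was judged in vivo: survival in drug-treated mice, normalised to that of vehicle-dosed controls, gives the reported T/C.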
# [1] = dose: 16.0 mg/kg/injection, schedule: Q01DX009 (ip), vehicle: Klucel (hydroxypropylcellulose) (HPC)
# [2] = dose: 80.0 mg/kg/injection, schedule: Q01DX001 (ip), vehicle: saline + alcohol
structure (smiles),measurement,setting,value
O=NN(CCCl)C(=O)NCCCl,T/C,"dose: 2.0 mg/kg/injection, schedule: Q01DX009 (ip), vehicle: Klucel (hydroxypropylcellulose) (HPC)","160, 172, 184, 189 % of control"
same,T/C,"dose: 2.0 mg/kg/injection, schedule: Q01DX009 (ip), vehicle: saline + alcohol, evaluated on day 30","150, 162, 163, 167 % of control"
same,T/C,"dose: 2.0 mg/kg/injection, schedule: Q01DX009 (ip), vehicle: saline + alcohol, evaluated on day 45",179 and 184 % of control
same,T/C,"dose: 2.0 mg/kg/injection, schedule: Q01DX009 (ip), vehicle: saline, evaluated on day 30","135, 156, 160, 184, 186, 187, 194, 198, 205, 232, 234, 247 % of control"
same,T/C,"dose: 2.0 mg/kg/injection, schedule: Q01DX009 (ip), vehicle: saline, evaluated on day 60","130, 139, 146, 149 % of control"
same,T/C,"dose: 2.5 mg/kg/injection, schedule: Q01DX001 (ip), vehicle: saline",132 % of control
same,T/C,"dose: 3.75 mg/kg/injection, schedule: Q01DX001 (ip), vehicle: saline + alcohol",138 % of control
same,T/C,"dose: 4.0 mg/kg/injection, schedule: Q01DX009 (ip), vehicle: Klucel (hydroxypropylcellulose) (HPC)","200, 209, 213 [5 of 6 alive], 249 % of control"
same,T/C,"dose: 4.0 mg/kg/injection, schedule: Q01DX009 (ip), vehicle: saline + alcohol, evaluated on day 30","210, 211, 233, 236 % of control"
same,T/C,"dose: 4.0 mg/kg/injection, schedule: Q01DX009 (ip), vehicle: saline + alcohol, evaluated on day 45",207 and 252 % of control
same,T/C,"dose: 4.0 mg/kg/injection, schedule: Q01DX009 (ip), vehicle: saline, evaluated on day 30","126, 168, 212, 222 [5 of 6 alive], 236, 251, 254, 256, 258, 272, 283, 287 % of control"
same,T/C,"dose: 4.0 mg/kg/injection, schedule: Q01DX009 (ip), vehicle: saline, evaluated on day 60","155, 179, 239, 259 % of control"
same,T/C,"dose: 7.5 mg/kg/injection, schedule: Q01DX001 (ip), vehicle: saline",125 % of control
same,T/C,"dose: 7.5 mg/kg/injection, schedule: Q01DX005 (ip), vehicle: saline + alcohol, evaluated on day 30","237, 283, 300 % of control"
same,T/C,"dose: 7.5 mg/kg/injection, schedule: Q01DX005 (ip), vehicle: saline + alcohol, evaluated on day 35",228 and 294 % of control
same,T/C,"dose: 7.5 mg/kg/injection, schedule: Q01DX005 (ip), vehicle: saline + alcohol, evaluated on day 40",334 % of control
same,T/C,"dose: 7.5 mg/kg/injection, schedule: Q01DX009 (ip), vehicle: saline + alcohol, evaluated on day 30","170, 265, 283 % of control"
same,T/C,"dose: 7.5 mg/kg/injection, schedule: Q01DX009 (ip), vehicle: saline + alcohol, evaluated on day 35",294 and 343 % of control
same,T/C,"dose: 7.5 mg/kg/injection, schedule: Q01DX009 (ip), vehicle: saline + alcohol, evaluated on day 40",396 % of control
same,T/C,"dose: 8.0 mg/kg/injection, schedule: Q01DX001 (ip), vehicle: saline + alcohol",128 % of control
same,T/C,"dose: 8.0 mg/kg/injection, schedule: Q01DX009 (ip), vehicle: Klucel (hydroxypropylcellulose) (HPC)","119, 215, 258, 270 % of control"
same,T/C,"dose: 8.0 mg/kg/injection, schedule: Q01DX009 (ip), vehicle: saline + alcohol, evaluated on day 5",395 and 533 % of control
same,T/C,"dose: 8.0 mg/kg/injection, schedule: Q01DX009 (ip), vehicle: saline + alcohol, evaluated on day 30","158, 231, 245, 251 % of control"
same,T/C,"dose: 8.0 mg/kg/injection, schedule: Q01DX009 (ip), vehicle: saline + alcohol, evaluated on day 45",330 and 427 % of control
same,T/C,"dose: 8.0 mg/kg/injection, schedule: Q01DX009 (ip), vehicle: saline, evaluated on day 30","118, 147, 178, 199, 203, 216, 238, 254, 257, 271, 305, 319 % of control"
same,T/C,"dose: 8.0 mg/kg/injection, schedule: Q01DX009 (ip), vehicle: saline, evaluated on day 60","156, 194, 209, 547 % of control"
same,T/C,"dose: 10.0 mg/kg/injection, schedule: Q#XHX024 (ip), vehicle: saline",140 % of control
same,T/C,"dose: 12.5 mg/kg/injection, schedule: Q01DX010 (ip), vehicle: saline",135 and 140 % of control
same,T/C,"dose: 13.0 mg/kg/injection, schedule: Q01DX001 (ip), vehicle: other",145 % of control
same,T/C,"dose: 13.0 mg/kg/injection, schedule: Q01DX001 (ip), vehicle: saline + alcohol",125 % of control
same,T/C,"dose: 15.0 mg/kg/injection, schedule: Q01DX005 (ip), vehicle: saline + alcohol, evaluated on day 30","143, 265, 283 % of control"
same,T/C,"dose: 15.0 mg/kg/injection, schedule: Q01DX005 (ip), vehicle: saline + alcohol, evaluated on day 35",343 % of control (2×)
same,T/C,"dose: 15.0 mg/kg/injection, schedule: Q01DX005 (ip), vehicle: saline + alcohol, evaluated on day 40",396 % of control
same,T/C,"dose: 15.0 mg/kg/injection, schedule: Q01DX009 (ip), vehicle: saline + alcohol, evaluated on day 30","98, 110, 132 % of control"
same,T/C,"dose: 15.0 mg/kg/injection, schedule: Q01DX009 (ip), vehicle: saline + alcohol, evaluated on day 35",120 and 147 % of control
same,T/C,"dose: 15.0 mg/kg/injection, schedule: Q01DX009 (ip), vehicle: saline + alcohol, evaluated on day 40",121 % of control
same,T/C,[1],87 and 99 % of control
same,survivor count,[1],5 of 6 and 6 of 6
same,T/C,"dose: 16.0 mg/kg/injection, schedule: Q01DX009 (ip), vehicle: other",133 % of control
same,T/C,"dose: 16.0 mg/kg/injection, schedule: Q01DX009 (ip), vehicle: saline + alcohol, evaluated on day 30","99, 101, 102 % of control"
same,T/C,"dose: 16.0 mg/kg/injection, schedule: Q01DX009 (ip), vehicle: saline + alcohol, evaluated on day 45",112 and 116 % of control
same,survivor count,"dose: 16.0 mg/kg/injection, schedule: Q01DX009 (ip), vehicle: saline + alcohol",6 of 6
same,T/C,"dose: 16.0 mg/kg/injection, schedule: Q01DX009 (ip), vehicle: saline, evaluated on day 30","90, 94, 95, 96, 102, 109, 119, 122, 128, 140, 157, 227 % of control"
same,T/C,"dose: 16.0 mg/kg/injection, schedule: Q01DX009 (ip), vehicle: saline, evaluated on day 60","94 [5 of 6 alive], 99, 111 % of control (2×)"
same,T/C,"dose: 20.0 mg/kg/injection, schedule: Q01DX001 (ip), vehicle: saline + alcohol, evaluated on day 30","159, 230, 283 % of control"
same,T/C,"dose: 20.0 mg/kg/injection, schedule: Q01DX001 (ip), vehicle: saline + alcohol, evaluated on day 35",176 and 238 % of control
same,T/C,"dose: 20.0 mg/kg/injection, schedule: Q01DX001 (ip), vehicle: saline + alcohol, evaluated on day 40",396 % of control
same,T/C,"dose: 20.0 mg/kg/injection, schedule: Q01DX001 (ip), vehicle: saline + alcohol, evaluated on day 60","231, 236, 330, 376, 535, 538 % of control"
same,survivor count,"dose: 24.0 mg/kg/injection, schedule: Q01DX001 (ip), vehicle: Klucel (hydroxypropylcellulose) (HPC)",10 of 10
same,survivor count,"dose: 25.0 mg/kg/injection, schedule: Q01DX010 (ip), vehicle: saline",6 of 6
same,T/C,"dose: 30.0 mg/kg/injection, schedule: Q01DX001 (ip), vehicle: saline + alcohol, evaluated on day 35",350 % of control
same,T/C,"dose: 30.0 mg/kg/injection, schedule: Q01DX001 (ip), vehicle: saline + alcohol, evaluated on day 46",327 % of control
same,T/C,"dose: 30.0 mg/kg/injection, schedule: Q01DX001 (ip), vehicle: saline + alcohol, evaluated on day 60","230, 232, 535, 540, 550, 562 % of control"
same,T/C,"dose: 30.0 mg/kg/injection, schedule: Q01DX005 (ip), vehicle: saline + alcohol, evaluated on day 30",87 and 90 % of control
same,T/C,"dose: 30.0 mg/kg/injection, schedule: Q01DX005 (ip), vehicle: saline + alcohol, evaluated on day 35",88 and 100 % of control
same,survivor count,"dose: 30.0 mg/kg/injection, schedule: Q01DX005 (ip), vehicle: saline + alcohol",6 of 6 (2×)
same,T/C,"dose: 30.0 mg/kg/injection, schedule: Q01DX009 (ip), vehicle: saline + alcohol, evaluated on day 30",93 % of control
same,T/C,"dose: 30.0 mg/kg/injection, schedule: Q01DX009 (ip), vehicle: saline + alcohol, evaluated on day 35",91 and 97 % of control
same,survivor count,"dose: 30.0 mg/kg/injection, schedule: Q01DX009 (ip), vehicle: saline + alcohol",6 of 6 (2×)
same,T/C,"dose: 40.0 mg/kg/injection, schedule: Q01DX001 (ip), vehicle: saline + alcohol, evaluated on day 30","265, 283, 300 % of control"
same,T/C,"dose: 40.0 mg/kg/injection, schedule: Q01DX001 (ip), vehicle: saline + alcohol, evaluated on day 35",199 and 343 % of control
same,T/C,"dose: 40.0 mg/kg/injection, schedule: Q01DX001 (ip), vehicle: saline + alcohol, evaluated on day 40",396 % of control
same,T/C,"dose: 40.0 mg/kg/injection, schedule: Q01DX001 (ip), vehicle: saline + alcohol, evaluated on day 60","513, 525, 534, 539, 549, 564 % of control"
same,survivor count,"dose: 48.0 mg/kg/injection, schedule: Q01DX001 (ip), vehicle: Klucel (hydroxypropylcellulose) (HPC)",10 of 10
same,survivor count,"dose: 60.0 mg/kg/injection, schedule: Q01DX001 (ip), vehicle: other",8 of 8
same,survivor count,"dose: 60.0 mg/kg/injection, schedule: Q01DX001 (ip), vehicle: saline + alcohol",5 of 6 and 7 of 8
same,survivor count,"dose: 60.0 mg/kg/injection, schedule: Q01DX001 (ip), vehicle: saline",6 of 8
same,T/C,[2],274 % of control
same,survivor count,[2],5 of 6 (2×) and 6 of 6 (2×)
